Consider one substance from patent US6403764.

The chains behind the UniProt entries cited, without tags or fusion partners. Where a name states a change or a piece, a line headed by the entry shows the natural chain unless it says otherwise. Residues count along the entry.
UniProt P17936, residues 28-291: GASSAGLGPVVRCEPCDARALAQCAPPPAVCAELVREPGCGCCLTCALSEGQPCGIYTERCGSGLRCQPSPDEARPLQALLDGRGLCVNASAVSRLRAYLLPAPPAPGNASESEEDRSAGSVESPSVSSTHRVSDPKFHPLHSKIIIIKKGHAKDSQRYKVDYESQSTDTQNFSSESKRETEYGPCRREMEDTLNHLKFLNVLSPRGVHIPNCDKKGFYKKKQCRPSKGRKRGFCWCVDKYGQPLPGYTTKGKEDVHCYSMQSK
UniProt P05019: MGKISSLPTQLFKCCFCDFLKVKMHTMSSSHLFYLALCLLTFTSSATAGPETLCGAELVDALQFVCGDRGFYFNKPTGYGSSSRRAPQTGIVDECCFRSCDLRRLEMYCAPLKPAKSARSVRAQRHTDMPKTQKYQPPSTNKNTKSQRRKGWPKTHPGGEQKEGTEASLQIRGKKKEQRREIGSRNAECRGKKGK

No constants are given. Whether binding was seen depends on the method and setting. Some binding calls cover weakened binding; strength is not graded here.

In one test the target is T1, human IGFBP-1 (human, UniProt P08833 26-259).
T1 construct: mature; Secreted recombinant protein; also called IGFBP-I
T1 sequence (looked up): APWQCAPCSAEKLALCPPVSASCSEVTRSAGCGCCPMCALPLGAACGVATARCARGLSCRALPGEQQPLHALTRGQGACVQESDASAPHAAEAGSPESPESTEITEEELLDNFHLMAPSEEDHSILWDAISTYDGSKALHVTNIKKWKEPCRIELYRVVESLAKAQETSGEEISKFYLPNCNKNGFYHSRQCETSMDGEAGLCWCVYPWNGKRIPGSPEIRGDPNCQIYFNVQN
Description: BIACORE. (In SPR one partner is held on a chip, and binding of the other changes the refractive index at the surface.)

Test [1] has as its target T2, recombinant human IGFBP-3 (human, UniProt P17936 28-291).
T2 construct: mature; Secreted recombinant protein
The test is described as follows: BIACORE.

“G1S-A70V IGF-I, purified soluble (from UniProt P05019 50-117) (ligand)”: the binding result (in the test with human IGFBP-1; in test [1]) was “binds” in each case.
